Data from the supplement of paper PMC12819154, “High-throughput peptide-centric local stability assay extends protein–ligand identification to membrane proteins, tissues and bacteria” (Nature Structural & Molecular Biology, 2025).
The other results are listed elsewhere or left out. Small differences around the control level are noise.

Sequences of proteins named here, by UniProt entry; tags and fusion partners are left off. A change or cut given only in a name is not applied to a line headed by its entry.
UniProt Q921K9, whole entry: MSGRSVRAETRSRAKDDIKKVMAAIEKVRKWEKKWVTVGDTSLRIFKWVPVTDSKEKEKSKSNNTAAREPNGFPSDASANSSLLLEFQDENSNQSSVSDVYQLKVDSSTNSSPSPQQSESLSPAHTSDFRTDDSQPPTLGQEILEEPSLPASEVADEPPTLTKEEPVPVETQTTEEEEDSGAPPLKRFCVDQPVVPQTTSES
UniProt Q921D4: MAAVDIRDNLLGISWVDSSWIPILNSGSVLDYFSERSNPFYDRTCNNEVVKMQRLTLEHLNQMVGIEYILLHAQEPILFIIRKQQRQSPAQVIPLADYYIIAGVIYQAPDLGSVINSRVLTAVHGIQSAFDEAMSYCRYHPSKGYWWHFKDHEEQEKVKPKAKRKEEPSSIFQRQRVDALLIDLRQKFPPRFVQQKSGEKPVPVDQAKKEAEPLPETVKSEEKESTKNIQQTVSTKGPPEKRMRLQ
UniProt Q99K90: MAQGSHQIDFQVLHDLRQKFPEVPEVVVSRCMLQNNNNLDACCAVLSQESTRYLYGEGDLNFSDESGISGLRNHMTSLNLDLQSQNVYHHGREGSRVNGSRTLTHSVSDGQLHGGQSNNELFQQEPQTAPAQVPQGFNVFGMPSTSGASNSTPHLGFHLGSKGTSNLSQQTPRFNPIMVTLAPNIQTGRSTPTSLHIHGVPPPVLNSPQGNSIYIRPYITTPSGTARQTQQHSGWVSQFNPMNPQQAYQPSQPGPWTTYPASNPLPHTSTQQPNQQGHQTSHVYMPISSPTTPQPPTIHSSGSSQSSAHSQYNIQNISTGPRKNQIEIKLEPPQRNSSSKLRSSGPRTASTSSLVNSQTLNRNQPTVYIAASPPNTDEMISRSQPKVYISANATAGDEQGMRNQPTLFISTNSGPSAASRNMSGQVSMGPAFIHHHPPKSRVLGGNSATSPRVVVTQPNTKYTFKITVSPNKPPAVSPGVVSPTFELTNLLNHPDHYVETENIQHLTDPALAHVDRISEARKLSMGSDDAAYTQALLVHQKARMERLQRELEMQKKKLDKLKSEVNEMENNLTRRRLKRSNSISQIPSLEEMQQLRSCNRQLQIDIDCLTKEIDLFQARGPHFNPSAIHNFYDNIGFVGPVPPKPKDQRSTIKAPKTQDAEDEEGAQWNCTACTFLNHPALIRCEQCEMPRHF
UniProt Q99K28: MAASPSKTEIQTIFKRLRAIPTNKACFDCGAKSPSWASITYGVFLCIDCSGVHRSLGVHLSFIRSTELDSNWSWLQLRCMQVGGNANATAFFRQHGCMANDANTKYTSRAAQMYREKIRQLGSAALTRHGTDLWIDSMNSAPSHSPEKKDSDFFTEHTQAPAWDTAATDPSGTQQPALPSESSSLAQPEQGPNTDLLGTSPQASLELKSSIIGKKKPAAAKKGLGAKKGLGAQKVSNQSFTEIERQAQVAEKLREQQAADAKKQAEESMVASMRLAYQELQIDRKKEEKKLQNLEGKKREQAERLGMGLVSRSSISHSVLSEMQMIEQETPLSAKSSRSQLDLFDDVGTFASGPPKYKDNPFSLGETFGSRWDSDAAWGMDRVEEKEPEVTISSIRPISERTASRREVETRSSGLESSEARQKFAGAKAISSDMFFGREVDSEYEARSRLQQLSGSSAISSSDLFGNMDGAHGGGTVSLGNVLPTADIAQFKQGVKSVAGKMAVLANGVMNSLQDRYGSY
UniProt Q921B4: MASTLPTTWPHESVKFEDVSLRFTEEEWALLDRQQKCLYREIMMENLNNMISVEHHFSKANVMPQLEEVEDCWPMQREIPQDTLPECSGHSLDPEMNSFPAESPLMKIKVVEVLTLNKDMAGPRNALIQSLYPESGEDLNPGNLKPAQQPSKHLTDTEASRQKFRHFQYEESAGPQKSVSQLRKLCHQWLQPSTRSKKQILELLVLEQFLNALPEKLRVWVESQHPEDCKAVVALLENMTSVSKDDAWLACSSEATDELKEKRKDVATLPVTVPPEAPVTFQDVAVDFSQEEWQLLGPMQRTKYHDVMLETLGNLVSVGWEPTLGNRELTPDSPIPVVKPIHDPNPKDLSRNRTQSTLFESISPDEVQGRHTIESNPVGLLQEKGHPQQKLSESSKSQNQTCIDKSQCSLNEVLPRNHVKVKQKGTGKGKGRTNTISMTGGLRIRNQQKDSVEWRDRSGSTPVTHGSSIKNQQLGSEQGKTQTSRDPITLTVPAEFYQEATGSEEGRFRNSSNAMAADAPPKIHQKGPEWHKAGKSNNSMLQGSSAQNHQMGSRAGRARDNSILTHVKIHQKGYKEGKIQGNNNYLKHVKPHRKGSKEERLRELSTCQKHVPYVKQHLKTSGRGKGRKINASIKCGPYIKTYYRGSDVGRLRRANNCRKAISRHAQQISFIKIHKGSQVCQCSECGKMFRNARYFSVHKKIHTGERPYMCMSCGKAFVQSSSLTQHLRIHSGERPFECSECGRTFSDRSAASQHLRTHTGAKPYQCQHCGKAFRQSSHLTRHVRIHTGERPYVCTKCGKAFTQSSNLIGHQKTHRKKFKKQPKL
UniProt Q921X9: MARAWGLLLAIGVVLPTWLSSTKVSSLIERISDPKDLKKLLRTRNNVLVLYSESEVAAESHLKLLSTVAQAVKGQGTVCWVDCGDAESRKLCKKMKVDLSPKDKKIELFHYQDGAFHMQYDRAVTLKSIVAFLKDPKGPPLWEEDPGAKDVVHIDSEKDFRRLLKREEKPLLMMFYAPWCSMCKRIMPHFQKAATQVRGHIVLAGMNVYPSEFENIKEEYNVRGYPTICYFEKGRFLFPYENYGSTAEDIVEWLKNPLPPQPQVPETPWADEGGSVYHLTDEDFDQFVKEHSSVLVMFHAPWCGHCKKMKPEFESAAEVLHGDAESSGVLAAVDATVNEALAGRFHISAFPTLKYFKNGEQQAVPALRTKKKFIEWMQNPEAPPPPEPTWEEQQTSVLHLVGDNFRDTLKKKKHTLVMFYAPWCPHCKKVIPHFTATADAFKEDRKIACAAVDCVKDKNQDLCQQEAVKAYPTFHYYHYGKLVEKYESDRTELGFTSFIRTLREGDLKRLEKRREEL
UniProt Q924H9: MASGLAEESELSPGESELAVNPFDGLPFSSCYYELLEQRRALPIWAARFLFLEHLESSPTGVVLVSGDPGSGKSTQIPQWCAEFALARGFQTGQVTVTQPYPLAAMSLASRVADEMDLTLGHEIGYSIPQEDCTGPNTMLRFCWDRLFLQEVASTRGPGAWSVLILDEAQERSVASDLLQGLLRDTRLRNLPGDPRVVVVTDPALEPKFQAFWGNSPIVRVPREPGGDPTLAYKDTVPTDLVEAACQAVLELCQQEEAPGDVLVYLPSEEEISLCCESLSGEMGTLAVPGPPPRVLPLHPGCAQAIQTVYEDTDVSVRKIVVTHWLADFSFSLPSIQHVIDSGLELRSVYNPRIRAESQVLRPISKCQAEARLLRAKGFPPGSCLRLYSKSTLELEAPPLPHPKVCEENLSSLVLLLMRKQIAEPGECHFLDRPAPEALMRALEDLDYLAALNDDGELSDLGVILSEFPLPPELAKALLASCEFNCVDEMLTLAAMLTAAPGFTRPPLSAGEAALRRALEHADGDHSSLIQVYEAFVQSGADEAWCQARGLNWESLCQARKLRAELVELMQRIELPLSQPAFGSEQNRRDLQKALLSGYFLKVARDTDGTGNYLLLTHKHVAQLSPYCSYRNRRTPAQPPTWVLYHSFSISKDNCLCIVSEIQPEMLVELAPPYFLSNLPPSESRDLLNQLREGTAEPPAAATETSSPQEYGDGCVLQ
UniProt Q99JX7: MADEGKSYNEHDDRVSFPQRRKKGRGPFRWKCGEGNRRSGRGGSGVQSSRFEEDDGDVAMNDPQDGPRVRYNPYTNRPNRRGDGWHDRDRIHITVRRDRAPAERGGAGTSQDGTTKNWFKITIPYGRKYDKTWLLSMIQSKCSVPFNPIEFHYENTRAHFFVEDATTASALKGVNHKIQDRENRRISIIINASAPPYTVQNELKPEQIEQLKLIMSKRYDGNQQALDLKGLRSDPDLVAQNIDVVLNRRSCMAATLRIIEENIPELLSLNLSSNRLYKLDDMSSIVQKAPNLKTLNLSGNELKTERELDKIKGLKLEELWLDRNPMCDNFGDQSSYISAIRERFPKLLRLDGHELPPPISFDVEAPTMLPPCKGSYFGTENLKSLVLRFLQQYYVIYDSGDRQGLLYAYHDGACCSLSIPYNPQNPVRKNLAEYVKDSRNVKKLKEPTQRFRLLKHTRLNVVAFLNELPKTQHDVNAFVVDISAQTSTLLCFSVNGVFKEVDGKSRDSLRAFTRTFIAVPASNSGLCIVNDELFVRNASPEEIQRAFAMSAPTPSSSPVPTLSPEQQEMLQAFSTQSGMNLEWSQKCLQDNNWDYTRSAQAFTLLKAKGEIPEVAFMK
UniProt Q99JG7: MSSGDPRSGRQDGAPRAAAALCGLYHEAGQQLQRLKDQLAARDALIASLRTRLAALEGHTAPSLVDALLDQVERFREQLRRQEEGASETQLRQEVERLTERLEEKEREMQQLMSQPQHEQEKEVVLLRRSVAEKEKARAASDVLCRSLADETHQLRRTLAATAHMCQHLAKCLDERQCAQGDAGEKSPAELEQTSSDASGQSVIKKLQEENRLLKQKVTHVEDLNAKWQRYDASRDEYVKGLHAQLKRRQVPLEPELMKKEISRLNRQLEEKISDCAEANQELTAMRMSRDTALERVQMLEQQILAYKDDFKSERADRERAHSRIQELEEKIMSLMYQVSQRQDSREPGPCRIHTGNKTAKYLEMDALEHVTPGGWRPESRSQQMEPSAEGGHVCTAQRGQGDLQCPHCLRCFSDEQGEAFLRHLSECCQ
UniProt Q99LE3: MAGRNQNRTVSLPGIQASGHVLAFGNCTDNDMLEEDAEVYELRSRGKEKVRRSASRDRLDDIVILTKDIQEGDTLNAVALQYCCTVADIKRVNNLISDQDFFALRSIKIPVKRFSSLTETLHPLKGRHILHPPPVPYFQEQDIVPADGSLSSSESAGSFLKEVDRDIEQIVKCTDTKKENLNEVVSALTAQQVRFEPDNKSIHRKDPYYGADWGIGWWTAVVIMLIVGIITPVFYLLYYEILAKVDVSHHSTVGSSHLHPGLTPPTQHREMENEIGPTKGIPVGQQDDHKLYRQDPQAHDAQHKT
UniProt Q99L13: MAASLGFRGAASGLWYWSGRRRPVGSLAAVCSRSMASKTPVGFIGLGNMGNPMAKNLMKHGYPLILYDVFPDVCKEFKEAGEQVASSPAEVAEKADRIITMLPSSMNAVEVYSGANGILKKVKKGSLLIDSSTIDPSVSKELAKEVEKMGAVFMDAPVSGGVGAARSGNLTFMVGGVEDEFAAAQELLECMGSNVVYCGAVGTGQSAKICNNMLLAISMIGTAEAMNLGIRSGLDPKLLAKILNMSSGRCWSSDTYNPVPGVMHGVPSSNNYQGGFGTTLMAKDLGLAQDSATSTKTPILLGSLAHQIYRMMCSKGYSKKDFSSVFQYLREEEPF

compound: CN[C@@H]1C[C@H]2O[C@@](C)([C@@H]1OC)n1c3ccccc3c3c4c(c5c6ccccc6n2c5c31)C(=O)NC4 [staurosporine]; assay: log2 fold change of tryptic peptide abundance, ligand vs vehicle (limited proteolysis) (log2 ratio); higher = more trypsin-susceptible (destabilized); details: ligand concentration: 20 uM; sample: mouse liver crude lysate; replicate design: treated separately

Target | log2 fold change
UniProt Q921K9 (peptide sequence: KWVTVGDTSLR, peptide start residue: 34) | -0.25
UniProt Q921D4 (peptide sequence: EAEPLPETVK, peptide start residue: 210) | -0.211
UniProt Q99K90 (peptide sequence: EIDLFQAR, peptide start residue: 612) | -0.139
UniProt Q99K28 (peptide sequence: ACFDCGAK, peptide start residue: 25) | -0.329
UniProt Q921B4 (peptide sequence: SGSTPVTHGSSIK, peptide start residue: 459) | -0.45
UniProt Q921X9 (peptide sequence: DVVHIDSEKDFRR, peptide start residue: 150) | -0.447
UniProt Q924H9 (peptide sequence: VVVVTDPALEPK, peptide start residue: 197) | 0.238
UniProt Q99JX7 (peptide sequence: SCMAATLR, peptide start residue: 250) | -0.464
UniProt Q99JG7 (peptide sequence: VQMLEQQILAYKDDFK, peptide start residue: 297) | 0.631
UniProt Q99LE3 (peptide sequence: RVNNLISDQDFFALR, peptide start residue: 91) | 0.223
UniProt Q99L13 (peptide sequence: ILNMSSGR, peptide start residue: 242) | -0.16

Two successive records already listed, for reference:
Target | log2 fold change
UniProt Q921X9 (peptide sequence: DVVHIDSEKDFRR, peptide start residue: 150) | -0.447
UniProt Q924H9 (peptide sequence: VVVVTDPALEPK, peptide start residue: 197) | 0.238
